Assay results taken from article PMC7190567.

T1: Caveolin-1 (wild type) (dog) (UniProt P33724)
T1 sequence: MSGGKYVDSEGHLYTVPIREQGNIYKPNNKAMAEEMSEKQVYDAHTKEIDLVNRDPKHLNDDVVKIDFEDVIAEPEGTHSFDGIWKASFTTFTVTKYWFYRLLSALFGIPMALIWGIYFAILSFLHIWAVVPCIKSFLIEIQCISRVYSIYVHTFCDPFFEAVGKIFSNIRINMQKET


Each binder was assayed against T1, Caveolin-1 (wild type) (dog) (assay: affinity purification with mass spectrometry; CAV1 immunoprecipitated with polyclonal anti-CAV1 on Dynabeads from B16F10(CAV1-E-cadherin) cells; trypsin digest, nano-ESI-MS/MS on an LTQ ion trap, Mascot; only proteins unique to this sample listed).

Row | Binder | binding
1 | DNA repair and recombination protein RAD54B (protein, UniProt Q6PFE3 1-886) MRRSAAPSQVQGKSFKKTRFIPPGRSNADVSKEITKMSPDPKLFQGAEQSQNDPGVCSSNPCPSEGIPREVGDGTRVDPLPPVHSASKEITESKAQEEEASSLLKYFSVVWCKASKKKHKKWEGDAILIVRGRSFTLKDLEGKDIGRGIGYKFKDLENVEEGQTLIIGGKEIEILGTISSDDFNSGKCFQHGSGSPAVPSSQAARKCFSNPFKSVCQSTQAQGKRWNDCRPRHNPCTPNALVMPRPDENHQRMFNRHCSPIVDVVIDPHLVHHLRPHQKDGIIFLYECVMGMRAVGKCGAILADEMGLGKTLQCISLIWTLQCQGPYGGKPVIKKTLIVTPGSLVNNWRKEFQKWLGSERIKIFTVDQDHKVEEFINSTFHSVLIISYEMLLRSLDQIKTIPFGLLICDEGHRLKNSSIKTTTALSSLSCEKTVILTGTPVQNDLQEFFALVDFVNPGILGSLSSYRKIYEEPIIISREPSSSKEERELGERRATELTRLTGRFILRRTQEVINKYLPPKIENVVFCRPGALQIELYRKLLRSQSVRFCLQGLLENSAHLICIGALKKLCNHPCLLFSSVKGKEFSSSCEENEERNLCQGLLSVFPAGYNPLQFSEEESGKLQVLVKLLAVIHELRPTEKVILVSNYRQTLNVLEEVCKRHGYACARLDGQTPVSQRQHIVDSFNSKYSTDFIFLLSSKAGGVGLNLIGGSHLILYDIDWNPATDIQAMSRVWRDGQKHPVHIYRLLTTGTIEEKIYQRQISKQGLSGAVVDLTRSSEHIQFSVEELKNLFTLHESSHCVTHDLLDCECTGEKGHTEDASEGPVASRQCQFGPQKSDALRPLSMSQLKQWKHFSGDHLNLPDPFLERIRENVSFFFQNITNQAPAV | binds
2 | HEAT repeat-containing protein 3 (protein, UniProt Q8BQM4 1-679) MGKSRTKRFKRPQFSPIESCQAEAAAASNGTGDEEDDGPAAELLEKLQHPSAEVRECACAGLARLVQQRPALPDLARRDAVRRLGPLLLDSSLAVRETAAGALRNLSACGGFDVCDDMVAKDIMTPLVALLRECLSGLDSNEMSPQEKADKRNPVESIANEAVNVLWNVCECSGRAVSIFNKEGCLEIVLQYLRRFPTSIDLAVSVAYCLQTVTEDNPELLKSFDGTALRVLESALLCPVASMEYILLKTLVAGTIWNLKDIIPSKSQAEIINAILGALSEVLGMNTGNMVIQMKEAETQRLKTAAESEDILANANGDDLVEDDEMEEIPHKRKLRRKTFISDLLPPTDKELREAMALLTAQQTALEVIVNMCCSEDPSDDEWEELSSSDESEAFMENSFSECSGHLMSPLCLSHEIHSALTNCLIPEKVFEKTSSPNSVAVDICSKNPTWKPLIRKMNTIQCRALMCLQSLVSLLDIDHLGGAPALQTLAQHLSQILFSQPDFAKHDDFLEAISSALRALLQTMASKNIPQCMTPEQLMTLCREGIHSSSIGVRVNVVSILGITGSVLAKDDGTLDTLKTIGCFLLEVATKDPSLVVTGEALDALFDVFADGEAAEKASVQIKLLAALKEFQPVFKMKIRKEGRGKYSPDQLCVLDNVKMNLRRFIAYQETVEKRLTS | binds
3 | DnaJ homolog subfamily C member 7 (protein, UniProt Q9QYI3 1-494) MAATAECDVVMAATEPELLEDEDAKREAESFKEQGNAYYAKKDYNEAYNYYTKAIDMCPNNASYYGNRAATLMMLGRFREALGDAQQSVRLDDSFVRGHLREGKCHLSLGNAMAACRSFQRALELDHKNAQAQQEFKNANAVMEYEKIAEVDFEKRDFRKVVFCMDRALEFAPACHRFKILKAECLAMLGRYPEAQFVASDILRMDSTNADALYVRGLCLYYEDCIEKAVQFFVQALRMAPDHEKACVACRNAKALKAKKEDGNKAFKEGNYKLAYELYTEALGIDPNNIKTNAKLYCNRGTVNSKLRQLEDAIEDCTNAVKLDDTYIKAYLRRAQCYMDTEQFEEAVRDYEKVYQTEKTKEHKQLLKNAQLELKKSKRKDYYKILGVDKNASEDEIKKAYRKRALMHHPDRHSGASAEVQKEEEKKFKEVGEAFTILSDPKKKTRYDSGQDLDEEGMNMGDFDANNIFKAFFGGPGGFSFEASGPGNFYFQFG | binds

Continued, values first:

Row | binding | Binder
4 | binds | Protein Jumonji (protein, UniProt Q62315 1-1234) MSKERPKRNIIQKKYDDSDGIPWSEERVVRKVLYLSLKEFKNAQKRQHGEGLAGSLKAVNGLLGNAQAKALGPASEQSENEKDDASQVSSTSNDVSSSDFEEGPSRKRPRLQAQRKFAQSQPNSPSTTPVKIVEPLLPPPATQISDLSKRKPKTEDFLTFLCLRGSPALPNSMVYFGSSQDEEDVEEEDDETEDVKATTNNASSSCQSTPRKGKTHKHVHNGHVFNGSSRSAREKEPAHKHRSKEATPGKEKHSEPRADSRREQASGAQPTAASAAASSAKGLAANHQPPPSHRSAQDLRKQVSKVNGVTRMSSLGAGTNSAKKIREVRPSPSKTVKYTATVTKGTVTYTKAKRELVKETKPNHHKPSSAVNHTISGKTESSNAKTRKQVLSLGGASKSTGPAASGLKASSRLNPKSCTKEVGGRQLREGLRNSKRRLEEAQQVDKPQSPPKKMKGVAGNAEAPGKKASAASGEKSLLNGHVKKEVPERSLERNRPKRAAAGKNMLGKQAHGKTEGTPCENRSTSQPESSHKPHDPQGKPEKGSGKSGWAAMDEIPVLRPSAKEFHDPLIYIESVRAQVEKYGMCRVIPPPDWRPECKLNDEMRFVTQIQHIHKLGRRWGPNVQRLACIKKHLRSQGITMDELPLIGGCELDLACFFRLINEMGGMQQVTDLKKWNKLADMLRIPKTAQDRLAKLQEAYCQYLLSYDSLSPEEHRRLEKEVLMEKEILEKRKGPLEGHTESDHHKFHSLPRFEPKNGLVHGVTPRNGFRSKLKEVGRAPLKTGRRRLFAQEKEVVKEEEEDKGVLNDFHKCIYKGRSVSLTTFYRTARNIMNMCFSKEPAPAEIEQEYWRLVEEKDCHVAVHCGKVDTNTHGSGFPVGKSEPFSRHGWNLTVLPNNTGSILRHLGAVPGVTIPWLNIGMVFSTSCWSRDQNHLPYIDYLHTGADCIWYCIPAEEENKLEDVVHTLLQGNGTPGLQMLESNVMISPEVLCKKGIKVHRTVQQSGQFVVCFPGSFVSKVCCGYNVSETVHFATTQWTSMGFETAKEMKRRHIAKPFSMEKLLYQIAQAEAKKENGPTLSTISALLDELRDTELRQRRLLFEAGLHSSARYGSHDGNSTVADGKKKPRKWLQLETSERRCQICQHLCYLSMVVQENENVVFCLECALRHVEKQKSCRGLKLMYRYDEEQIISLVNQICGKVSGKHGGIENCLNKPTPKRGPRKRATVDVPPSRLPSS
5 | binds | Kinesin-like protein KIF9 (protein, UniProt Q9WV04 1-790) MGTRKKVQAFVRVRPTDDFAHEMIKYGEDNKSIDIHLKKDTRRGVVNNQQTDWSFKLDGVLHNASQDLVYETVAKDAVSQALDGYNGTIMCYGQTGAGKTYTMTGATENYKHRGILPRALQQVFRMIEERPTHAITVRVSYLEIYNENLFDLLSTLPYVGPSVTPMTIVENPQGIFIKGLSVHLTSQEEDAFSLLFEGETNRIIASHTMNKNSSRSHCIFTIYMEAHSRTLSDEKYITSKINLVDLAGSERLSKTGSEGRVLKEATYINKSLSFLEQAIIALGDQNRDHVPFRQSKLTHALKDSLGGNCNMVLVTNIYGEAAQLDETLSSLRFASRMKLVTTEPAINEKYDAERMVKNLEKELALLKQELAIHDSLSNRTLVNYDPMDEIQIAEINSQVRRYLEGTLDEIDIINLRQIQEVFNQFRVVLSQQEQEVESALRRKYTLIDKNDFAAISAVQKVGLMDIEGNLVGEPDGQSFGLGVAPFSVKPGKKPKTKKTPKDQFSSSARKEGASSPVSGKDFDVASISKTQLIPSSKDGDLKDMLARERETSSIEPLISDSPKEELRAPRPSTPPSRTVAFEEFKNERGSEINRIFKENKSILNERKKRASETTQRINAIKQEIDETKDALNFQKSLREKQGEYENKGLMIIDEEEFLLILKLKDLKKQYRNEYQELRDLRAEIQYCQRLVDQCRHRLLMEFDIWYNESFMIPEDVQVALKLGSSIRPGMVPISRIVCLGEDDQDRFSHLQQTVLPEGLDSITFYNAKVKTDQKHNYMKTMVGLQQSHRK
6 | binds | Latrophilin-1 (protein, UniProt Q80TR1 29-1466) GLPFGLMRRELACEGYPIELRCPGSDVIMVENANYGRTDDKICDADPFQMENVQCYLPDAFKIMSQRCNNRTQCVVVAGSDAFPDPCPGTYKYLEVQYDCVPYIFVCPGTLQKVLEPTSTHESEHQSGAWCKDPLQAGDRIYVMPWIPYRTDTLTEYASWEDYVAARHTTTYRLPNRVDGTGFVVYDGAVFYNKERTRNIVKYDLRTRIKSGETVINTANYHDTSPYRWGGKTDIDLAVDENGLWVIYATEGNNGRLVVSQLNPYTLRFEGTWETGYDKRSASNAFMVCGVLYVLRSVYVDDDSEAAGNRVDYAFNTNANREEPVSLAFPNPYQFVSSVDYNPRDNQLYVWNNYFVVRYSLEFGPPDPSAGPATSPPLSTTTTARPTPLTSTASPAATTPLRRAPLTTHPVGAINQLGPDLPPATAPAPSTRRPPAPNLHVSPELFCEPREVRRVQWPATQQGMLVERPCPKGTRGIASFQCLPALGLWNPRGPDLSNCTSPWVNQVAQKIKSGENAANIASELARHTRGSIYAGDVSSSVKLMEQLLDILDAQLQALRPIERESAGKNYNKMHKRERTCKDYIKAVVETVDNLLRPEALESWKDMNATEQVHTATMLLDVLEEGAFLLADNVREPARFLAAKQNVVLEVTVLNTEGQVQELVFPQEYPSENSIQLSANTIKQNSRNGVVKVVFILYNNLGLFLSTENATVKLAGEAGTGGPGGASLVVNSQVIAASINKESSRVFLMDPVIFTVAHLEAKNHFNANCSFWNYSERSMLGYWSTQGCRLVESNKTHTTCACSHLTNFAVLMAHREIYQGRINELLLSVITWVGIVISLVCLAICISTFCFLRGLQTDRNTIHKNLCINLFLAELLFLVGIDKTQYEVACPIFAGLLHYFFLAAFSWLCLEGVHLYLLLVEVFESEYSRTKYYYLGGYCFPALVVGIAAAIDYRSYGTEKACWLRVDNYFIWSFIGPVSFVIVVNLVFLMVTLHKMIRSSSVLKPDSSRLDNIKSWALGAIALLFLLGLTWAFGLLFINKESVVMAYLFTTFNAFQGVFIFVFHCALQKKVHKEYSKCLRHSYCCIRSPPGGTHGSLKTSAMRSNTRYYTGTQSRIRRMWNDTVRKQTESSFMAGDINSTPTLNRGTMGNHLLTNPVLQPRGGTSPYNTLIAESVGFNPSSPPVFNSPGSYREPKHPLGGREACGMDTLPLNGNFNNSYSLRSGDFPPGDGGPEPPRGRNLADAAAFEKMIISELVHNNLRGASGGAKGPPPEPPVPPVPGVSEDEAGGPGSADRAEIELLYKALEEPLLLPRAQSVLYQSDLDESESCTAEDGATSRPLSSPPGRDSLYASGANLRDSPSYPDSSPEGPNEALPPPPPAPPGPPEIYYTSRPPALVARNPLQGYYQVRRPSHEGYLAAPSLEGPGPDGDGQMQLVTSL
7 | binds | Mitochondrial peptide methionine sulfoxide reductase (protein, UniProt Q9D6Y7 21-233) MGDSASKVISAEEALPGRTEPIPVTAKHHVSGNRTVEPFPEGTQMAVFGMGCFWGAERKFWVLKGVYSTQVGFAGGHTRNPTYKEVCSEKTGHAEVVRVVYRPEHISFEELLKVFWENHDPTQGMRQGNDFGTQYRSAVYPTSAVQMEAALRSKEEYQKVLSKHNFGPITTDIREGQVFYYAEDYHQQYLSKNPDGYCGLGGTGVSCPMAIKK

These are yes or no findings as the source states them, for the method shown. In cells and extracts the contact can be indirect. A yes stands for co-enrichment or nearness to the bait. Other partners may have been found.
